Experimental data: paper doi:10.1101/2024.04.28.591571
Results are given in words; binding and its absence hold for the method and conditions named. Binding seen in cells or lysates may run through a third protein.

By UniProt entry, the sequences of proteins in these tests, tags left out.
UniProt Q96J02: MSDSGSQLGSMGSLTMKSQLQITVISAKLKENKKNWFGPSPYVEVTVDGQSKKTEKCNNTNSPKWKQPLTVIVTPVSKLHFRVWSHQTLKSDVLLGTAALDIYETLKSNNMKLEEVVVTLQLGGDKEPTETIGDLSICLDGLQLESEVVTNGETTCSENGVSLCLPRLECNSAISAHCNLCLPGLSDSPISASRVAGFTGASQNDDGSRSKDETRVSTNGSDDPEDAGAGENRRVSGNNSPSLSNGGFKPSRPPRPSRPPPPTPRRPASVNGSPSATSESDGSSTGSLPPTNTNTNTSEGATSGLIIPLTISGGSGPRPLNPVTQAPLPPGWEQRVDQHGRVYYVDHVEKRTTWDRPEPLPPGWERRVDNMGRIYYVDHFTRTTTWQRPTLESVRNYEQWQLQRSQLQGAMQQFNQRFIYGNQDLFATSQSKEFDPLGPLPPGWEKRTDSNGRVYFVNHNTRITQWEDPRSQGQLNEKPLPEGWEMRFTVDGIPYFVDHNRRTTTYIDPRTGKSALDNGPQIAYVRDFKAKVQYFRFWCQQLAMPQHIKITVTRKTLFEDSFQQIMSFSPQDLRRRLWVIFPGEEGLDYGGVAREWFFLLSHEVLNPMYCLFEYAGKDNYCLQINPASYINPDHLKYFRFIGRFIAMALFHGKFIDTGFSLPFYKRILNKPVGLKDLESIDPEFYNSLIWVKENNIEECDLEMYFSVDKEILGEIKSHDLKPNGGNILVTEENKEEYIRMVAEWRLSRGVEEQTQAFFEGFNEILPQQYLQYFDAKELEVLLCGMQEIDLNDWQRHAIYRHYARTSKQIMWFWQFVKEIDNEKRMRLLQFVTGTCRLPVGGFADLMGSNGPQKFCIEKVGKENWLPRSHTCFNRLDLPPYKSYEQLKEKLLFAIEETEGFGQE
UniProt P98170: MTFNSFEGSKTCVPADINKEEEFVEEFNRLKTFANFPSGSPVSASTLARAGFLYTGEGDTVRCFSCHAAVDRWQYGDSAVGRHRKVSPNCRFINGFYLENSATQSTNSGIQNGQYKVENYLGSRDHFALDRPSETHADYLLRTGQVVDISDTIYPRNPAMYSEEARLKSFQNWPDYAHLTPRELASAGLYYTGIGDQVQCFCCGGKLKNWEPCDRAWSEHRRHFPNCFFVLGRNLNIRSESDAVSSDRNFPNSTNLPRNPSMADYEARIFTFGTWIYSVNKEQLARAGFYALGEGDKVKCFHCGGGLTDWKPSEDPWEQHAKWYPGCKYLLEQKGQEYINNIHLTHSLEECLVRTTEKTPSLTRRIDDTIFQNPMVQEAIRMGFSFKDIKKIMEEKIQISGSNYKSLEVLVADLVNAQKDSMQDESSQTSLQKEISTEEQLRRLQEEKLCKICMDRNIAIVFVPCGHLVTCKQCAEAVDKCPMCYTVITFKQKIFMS

Biological target: ITCH (E3 ubiquitin ligase) (human (endogenous in K562)) (UniProt Q96J02)
Assay: co-IP

X-Linked Inhibitor of Apoptotic Proteins (XIAP) (from UniProt P98170 1-497)
binding: no binding
